In PMC5155539:
These are yes or no findings as the source states them, for the method shown. In cells and extracts the contact can be indirect. Some binding calls cover weakened binding; strength is not graded here. For some assays here: Where a sequence is shown, tags or fusion partners need not be part of it.

T1: ALADIN (endogenous) (human (endogenous in NCI-H295R)) (UniProt Q9NRG9)
T1 sequence: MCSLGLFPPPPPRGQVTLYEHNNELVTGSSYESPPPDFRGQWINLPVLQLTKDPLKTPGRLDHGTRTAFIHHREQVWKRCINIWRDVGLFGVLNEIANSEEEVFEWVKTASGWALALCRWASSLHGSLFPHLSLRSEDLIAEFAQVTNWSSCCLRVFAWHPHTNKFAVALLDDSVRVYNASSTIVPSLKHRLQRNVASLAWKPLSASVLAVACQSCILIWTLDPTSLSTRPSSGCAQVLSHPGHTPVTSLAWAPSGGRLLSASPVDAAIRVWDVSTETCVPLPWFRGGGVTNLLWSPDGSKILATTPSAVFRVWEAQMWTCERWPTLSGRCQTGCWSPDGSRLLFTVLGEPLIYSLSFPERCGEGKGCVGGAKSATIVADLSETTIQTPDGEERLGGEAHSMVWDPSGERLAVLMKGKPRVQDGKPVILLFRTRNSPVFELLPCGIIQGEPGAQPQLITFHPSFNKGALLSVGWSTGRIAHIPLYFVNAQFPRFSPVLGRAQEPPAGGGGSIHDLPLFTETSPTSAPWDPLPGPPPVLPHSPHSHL

T2: GFP-ALADIN fusion protein (human) (UniProt Q9NRG9)
T2 sequence: T1 sequence

T3: PGRMC2-GFP fusion protein (human) (UniProt O15173)
T3 sequence: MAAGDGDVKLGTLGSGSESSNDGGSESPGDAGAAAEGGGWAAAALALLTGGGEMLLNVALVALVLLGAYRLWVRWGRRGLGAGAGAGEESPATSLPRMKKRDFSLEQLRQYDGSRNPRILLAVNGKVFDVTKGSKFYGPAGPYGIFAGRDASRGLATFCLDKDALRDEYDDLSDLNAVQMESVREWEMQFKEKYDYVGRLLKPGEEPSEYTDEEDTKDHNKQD

T4: progesterone receptor membrane component 2 (PGRMC2), endogenous (human (endogenous in NCI-H295R)) (UniProt O15173)
T4 sequence: T3 sequence

B1: progesterone receptor membrane component 2 (PGRMC2), endogenous (protein, UniProt O15173 1-223)
chain: T3 sequence
B2: ALADIN (endogenous) (protein, UniProt Q9NRG9 1-546)
chain: T1 sequence

Experiments:
[1] = target: T1, ALADIN (endogenous) (human (endogenous in NCI-H295R)); assay: co-IP; endogenous ALADIN pulldown: anti-ALADIN (2 ug/ml) on Protein G UltraLink resin sepharose beads, NCI-H295R lysate (500 ug protein), normal mouse IgG as control; western blot
[2] = target: T2, GFP-ALADIN fusion protein (human); assay: co-IP; GFP-Trap_A agarose beads, whole cell lysates (500 ug protein) of NCI-H295R cells expressing GFP-ALADIN, PGRMC2-GFP or GFP (negative control); bound overnight at 4°C; western blot
[3] = target: T3, PGRMC2-GFP fusion protein (human); assay: as above
[4] = target: T4, progesterone receptor membrane component 2 (PGRMC2), endogenous (human (endogenous in NCI-H295R)); assay: co-IP; endogenous PGRMC2 pulldown: anti-PGRMC2 (HPA041172, 2 ug/ml) on Protein G UltraLink resin sepharose beads, NCI-H295R lysate (500 ug protein), normal rabbit IgG as control; western blot

Row | binding [1] | binding [2] | binding [3] | binding [4] | Binder
1 | binds | binds | binds | – | B1
2 | – | – | binds | binds weakly | B2
